No constants are given. Whether binding was seen depends on the method and setting. Binding seen in cells or lysates may run through a third protein. These calls come from enrichment with a bait or labelling near it, and not all partners need be listed.
Target: triple-flag–tagged TGIF2a (transforming growth factor–β–induced homeobox factor 2, isoform a) (UniProt Q8C0Y1)
Experiment: affinity purification with mass spectrometry; P19 cells transfected with triple-flag TGIF2a or GFP control, lysed after 48 hours in nondenaturing buffer (20 mM tris-HCl pH 8.0, 137 mM NaCl, 1% NP-40, 2 mM EDTA); anti-FLAG antibody and Protein G Dynabeads, 4°C; hits by LFQ intensity ratio > 3 against the GFP control, two biological replicates

Chains of the proteins cited; added tags and fusions are not shown.
UniProt Q8C0Y1: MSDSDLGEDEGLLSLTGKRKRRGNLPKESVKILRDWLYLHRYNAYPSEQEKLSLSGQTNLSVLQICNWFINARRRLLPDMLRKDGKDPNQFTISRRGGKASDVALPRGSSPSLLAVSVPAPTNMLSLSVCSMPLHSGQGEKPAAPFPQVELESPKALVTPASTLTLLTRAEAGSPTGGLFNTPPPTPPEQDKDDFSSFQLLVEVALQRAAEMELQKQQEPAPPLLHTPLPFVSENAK
UniProt P11103: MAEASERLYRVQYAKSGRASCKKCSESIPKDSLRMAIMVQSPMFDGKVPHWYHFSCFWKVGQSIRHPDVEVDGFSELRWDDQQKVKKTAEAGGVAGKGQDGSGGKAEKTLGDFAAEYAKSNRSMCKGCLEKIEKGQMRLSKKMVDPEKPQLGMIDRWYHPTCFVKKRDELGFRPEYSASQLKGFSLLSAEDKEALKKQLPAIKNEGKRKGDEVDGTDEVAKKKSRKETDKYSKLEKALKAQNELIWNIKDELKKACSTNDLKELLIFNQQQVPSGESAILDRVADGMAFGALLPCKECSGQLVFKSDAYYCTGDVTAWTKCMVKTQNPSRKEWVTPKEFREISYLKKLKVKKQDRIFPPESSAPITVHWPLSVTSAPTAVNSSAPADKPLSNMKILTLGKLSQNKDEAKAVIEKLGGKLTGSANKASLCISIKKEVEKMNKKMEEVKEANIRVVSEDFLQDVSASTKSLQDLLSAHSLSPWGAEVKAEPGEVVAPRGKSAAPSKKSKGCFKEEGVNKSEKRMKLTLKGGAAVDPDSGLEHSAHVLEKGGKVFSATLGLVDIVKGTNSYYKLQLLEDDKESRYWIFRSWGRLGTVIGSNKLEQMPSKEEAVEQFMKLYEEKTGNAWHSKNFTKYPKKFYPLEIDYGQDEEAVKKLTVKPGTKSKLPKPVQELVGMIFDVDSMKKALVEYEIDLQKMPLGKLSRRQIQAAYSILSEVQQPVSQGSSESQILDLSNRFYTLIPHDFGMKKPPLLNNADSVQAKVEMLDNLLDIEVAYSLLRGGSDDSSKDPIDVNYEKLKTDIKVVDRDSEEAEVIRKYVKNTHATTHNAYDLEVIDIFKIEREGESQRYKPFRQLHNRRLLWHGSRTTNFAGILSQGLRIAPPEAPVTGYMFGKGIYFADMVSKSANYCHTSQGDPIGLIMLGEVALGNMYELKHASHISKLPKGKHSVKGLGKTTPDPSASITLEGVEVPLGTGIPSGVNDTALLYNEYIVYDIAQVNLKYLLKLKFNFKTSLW
UniProt Q62193: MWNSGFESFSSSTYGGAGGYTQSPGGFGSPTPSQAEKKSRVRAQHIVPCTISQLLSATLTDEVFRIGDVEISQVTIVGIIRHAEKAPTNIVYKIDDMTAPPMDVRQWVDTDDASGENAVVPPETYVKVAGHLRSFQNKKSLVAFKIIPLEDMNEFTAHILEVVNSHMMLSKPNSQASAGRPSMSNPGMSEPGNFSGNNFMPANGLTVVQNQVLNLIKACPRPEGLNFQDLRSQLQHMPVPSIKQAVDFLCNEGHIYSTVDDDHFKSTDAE
UniProt Q8VEE4: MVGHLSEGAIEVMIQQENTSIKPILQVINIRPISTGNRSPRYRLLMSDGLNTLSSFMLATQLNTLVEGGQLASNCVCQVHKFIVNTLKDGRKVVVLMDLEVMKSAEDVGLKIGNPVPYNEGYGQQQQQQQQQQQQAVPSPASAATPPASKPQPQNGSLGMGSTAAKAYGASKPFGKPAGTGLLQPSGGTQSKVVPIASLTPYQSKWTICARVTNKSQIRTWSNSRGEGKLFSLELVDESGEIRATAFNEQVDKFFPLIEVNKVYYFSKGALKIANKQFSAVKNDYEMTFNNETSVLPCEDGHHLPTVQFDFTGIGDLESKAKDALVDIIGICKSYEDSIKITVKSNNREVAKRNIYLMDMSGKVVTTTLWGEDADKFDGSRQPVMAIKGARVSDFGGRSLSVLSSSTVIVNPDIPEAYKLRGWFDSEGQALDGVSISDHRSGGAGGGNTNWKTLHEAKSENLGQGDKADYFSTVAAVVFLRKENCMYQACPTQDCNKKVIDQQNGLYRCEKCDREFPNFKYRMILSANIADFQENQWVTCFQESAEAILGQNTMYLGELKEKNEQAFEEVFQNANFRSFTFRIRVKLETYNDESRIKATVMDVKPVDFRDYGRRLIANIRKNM
UniProt O54962: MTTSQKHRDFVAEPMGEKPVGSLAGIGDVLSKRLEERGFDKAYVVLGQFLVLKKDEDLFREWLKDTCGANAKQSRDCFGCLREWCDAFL
UniProt Q9CQ71: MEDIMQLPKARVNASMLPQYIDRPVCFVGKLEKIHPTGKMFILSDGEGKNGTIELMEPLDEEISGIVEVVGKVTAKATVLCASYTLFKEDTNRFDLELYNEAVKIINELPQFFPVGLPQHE
UniProt O09106: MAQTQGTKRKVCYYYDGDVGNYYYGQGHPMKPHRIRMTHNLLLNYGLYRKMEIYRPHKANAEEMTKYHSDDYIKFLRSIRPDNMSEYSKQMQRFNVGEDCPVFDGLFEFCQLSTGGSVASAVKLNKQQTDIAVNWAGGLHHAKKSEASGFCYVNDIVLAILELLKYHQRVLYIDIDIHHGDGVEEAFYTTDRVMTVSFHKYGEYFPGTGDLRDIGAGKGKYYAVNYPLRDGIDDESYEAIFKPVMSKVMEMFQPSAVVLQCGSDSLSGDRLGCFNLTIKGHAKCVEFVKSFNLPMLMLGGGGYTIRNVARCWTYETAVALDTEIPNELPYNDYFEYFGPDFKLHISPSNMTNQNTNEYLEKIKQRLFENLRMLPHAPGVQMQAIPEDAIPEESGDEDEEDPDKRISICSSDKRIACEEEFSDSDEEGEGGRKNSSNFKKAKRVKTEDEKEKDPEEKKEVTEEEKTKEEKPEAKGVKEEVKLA
UniProt P70288: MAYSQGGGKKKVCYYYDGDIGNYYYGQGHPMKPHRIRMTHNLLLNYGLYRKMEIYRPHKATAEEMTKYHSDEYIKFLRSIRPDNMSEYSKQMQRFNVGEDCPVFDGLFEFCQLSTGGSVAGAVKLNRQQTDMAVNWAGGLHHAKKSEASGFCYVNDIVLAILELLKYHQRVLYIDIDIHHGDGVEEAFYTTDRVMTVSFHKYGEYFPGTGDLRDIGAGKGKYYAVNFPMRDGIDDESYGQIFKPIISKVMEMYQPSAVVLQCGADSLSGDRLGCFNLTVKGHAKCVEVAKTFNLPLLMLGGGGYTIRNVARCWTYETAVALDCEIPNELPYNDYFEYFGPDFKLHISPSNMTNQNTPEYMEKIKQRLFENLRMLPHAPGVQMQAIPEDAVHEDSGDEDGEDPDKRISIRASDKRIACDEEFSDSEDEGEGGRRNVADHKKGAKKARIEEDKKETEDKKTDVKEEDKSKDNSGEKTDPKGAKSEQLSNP

binding	Substance
binds	poly(ADP-ribose) polymerase 1 (from UniProt P11103 1-1013)
binds	replication protein A 2 (from UniProt Q62193 1-270)
binds	replication protein A 1 (from UniProt Q8VEE4 1-623)

The remaining lines, values behind:

Substance	binding
barrier to autointegration factor 1 (from UniProt O54962 1-89)	binds
replication protein A 3 (from UniProt Q9CQ71 1-121)	binds
HDAC1 (from UniProt O09106 1-482)	binds
HDAC2 (from UniProt P70288 1-488)	binds
